Literature values in US7262171B1, “Use of rhamnolipids in wound healing, treating burn shock, atherosclerosis, organ transplants, depression, schizophrenia and cosmetics” (Paradigm Biomedical, Inc., priority 1998, dated 2007).
For at least one compound, name, drawing or mass did not settle the structure.

Tested on: mice
Details: doses that failed to produce antidepressant effects in control animals; cited from earlier work

Structure (SMILES): CN1CCN(C2=Nc3cc(Cl)ccc3Nc3ccccc32)CC1 [clozapine]
- PCP-induced enhancement of immobility in the forced swimming test: attenuated
